No constants are given. Whether binding was seen depends on the method and setting. In cells and extracts the contact can be indirect. A yes stands for co-enrichment or nearness to the bait. Other partners may have been found.
B1: Leucine rich repeat protein (protein, UniProt C4MBQ9 1-335)
chain: MQQSQQHLGYNEIMIVSKYFEGINDFINLEMGVKRFQGNMERFHFNPIPLNQYSRKLFPNIETFHIYNKNDTKFQDGKIFKQVIWYEVNYQDYLKEKASGNDYKNVFINKDEKGVDLNNVPEPINGIGDNFYASSNMTELQLSPKIKRIGKNCFSHCDQLTKVTVPTSISVLSDSCFYHCGHITEIILSDAIQKLEDFCFAECYSLKSITLPLSIIKVGSRCFERCSSLTNLNIPGYHFTIGNRIYFNNAPLITMVIPSSVKTINELPINKIPEGQKIVIPKSVFSVSKMAFVDVDSKLISSDNTIPYIRKTIMDTIYQDAKERDGTYDKFSRIF
B2: Calmodulin (protein, UniProt C4LUQ9 1-153)
chain: MSRRRDEEVDQELVGELKDAFDMFDSSKKGYLDKDDVKKLFKTNGIRVTDEDLDAAFKEADADGDKKIECMEFINMMTGKMKTASTEQKLTEAFKVFDPEEKGVIDSKELTEALLNIGERCTTSEVGELKTVAENQEGQIRYELFIQAVFAKK
B3: Cysteine synthase A (protein, UniProt C4M0H9 1-337)
chain: MEQISISSPRKRIYHNILETIGGTPLVELHGVTEHPRIKKGTRILVKLEYFNPMSSVKDRVGFNIVYQAIKDGRLKPGMEIIEATSGNTGIALCQAGAVFGYRVNIAMPSTMSVERQMIMKAFGAELILTEGKKGMPGAIEEVNKMIKENPGKYFVANQFGNPDNTAAHHYTANEIWEDTDGEVDIVVSAVGTSGTVIGVAEKLKEKKKGIKIIAVEPEESAVLEGKAKGPHGIQGIGAGFIPDIYKKEFVDEIIPIKTQDAWKMARAVVKYDGIMCGMSSGAAILAGLKEAEKPENEGKTIVIIVPSCGERYLSTDLYKIKDEGTKIQILDSLLNE
B4: Polyadenylate-binding protein (protein, UniProt C4M6Y2 1-514)
chain: MTTAQSNFSDFAENKTIFVSGLSLNVTESVLYGTVLKEFPNQVLNVHINKDNSHDTSIAYINMNTHDSAAQAISKLNGTIIEGRKVNMFWSLRDYKLRTQSETNLYVKGIKKEIGQQKMQEVFDKYGNTLSVKLSTNEKNESNGFGYVKYCTVDECKKVIAAKEEISKEIGEASFDIVKFEKQNKSLKTNIYIGNIDATVTEEQFLKYFETFGPIRKDASGKLAYKIVLDQAHQKNKGFVNYENVEDAQKAISSPKTGVLGSGEILIDYYKSKEERKKEWRNALFEIKNNVAGRYKDFNLYINTGKNHTTSDAEIREKLGSCGEIYSLQVKYYNKQPTEVAYCCFKDAQGAQNALAKASELGWTINKFMTKQEKFISQNMYAQTAYPINFFNFFQMFNPNVIVPQHPQNQNKEKDHRKKSTREESRKPKPIAEKQPKVEKAPIINEDMKNELGDQLYDYILSLGLYDEDLTGRITGVLLESIEYADLKKKIDTKSPELTVIIKEIVENLKKIQN
B5: GOLD domain-containing protein (protein, UniProt A0A8U0WP28 1-193)
chain: MIGLLLFITFTSTNAYRFIVPNRAQECVYSEIKDIEKVIVEIGVISGGNKDIAFTVTDPSGSNIYSIVYEEGKYNNYIYINTKTPGVYSFCFDNTMSLYTSKLVEFKLQLEQIQPATEQEVKSIKTKLQQVSTYLNDAKNDQRRLRIRENRNRQTGDATNLRTTILFLIGCFVIMAMGCFQVWYIKRQFKRGR
B6: Uncharacterized protein (EHI_047800) (protein, UniProt C4M7X1 1-304)
chain: MLFFLLVAFVSADFDVQSAGRLYDHTVLEANFQAKGVPNYFIFNATRQKELWTTVNPSDNAVIGTVELSFQYFVTNNLLNRLAVCIGKKEEIPNNYTGIGTNFINPQGSTYCKEQTSSTSGTLTLSFEKSYDEYYIAAYVQCKTEALCFSQDVIISTTCGKEQSSETIKSYDKEPYVILPNKDFRFSTEFEYGGSKSDKKVLNFVIYTPAKGDKNIYFAMKGKVIPTLFYTTNLTETCSGNACFHTNGAENGFLELSNINEKTPVKIMLQGNEKSKIQIKLSDGTDFAPATIISLMALLLFFML
B7: PNP_UDP_1 domain-containing protein (protein, UniProt C4M2Y7 1-320)
chain: MSRLTEATLPANGNTIYHLSITAEDLADNIILVGDPERVPKASKLLFDESKPIFRRDHRGLTTMTGFTPKGLRISIVTHGMGTGSAEIIINEILALKCIDVKTRTPKAAPTHPVNIIRVGTSGAISKNTPIGTAIVTKYTIGLDNTGLFYDVKQVNKEALELEKEVIEKIDKAIPEGHRFKGKIRPYVSVPNSLVVEALEKVAKEQNVPYKVGITASAAGFFVCQGRFIFKELPTTISSLEDVLMNVQTKDLMVENFEMEMSCITQITQGFKWVRSGGICEIVDNRQLKTFTSADDVNVDKILKVAADALAILDTIPMEQ
B8: Tubulin beta chain (protein, UniProt C4LUJ0 1-459)
chain: MREIICLQIGQCGNQVGEKFWDIIGQEHGLSPDGIFNGNKLQQQRLNVYFSESSTKRYVPRSINVDLEPGTLDTIKSGKMGHFFKPDSFIFGHGGAGNNWAKGHYTEGTEICETIMESVRKEAEACECLQGFQVTHSLGGGTGSGLGTLLLSKLKDEFFEKVISTFSVVPSPTVSETVVEPYNCTLSVHKLLESSGVTFCFDNEALFKIASDIMKEPKPSYESLNSLISSVMSGITCSLRFPGQLNQDLKKLTVNMIPYPRLHFFSSSIAPVSSALSMQYESLSVQEIIQQLFDRKNMMVDLDPASGKYLTASCIMRGKVSTHDVEEQLYKIREKNPDAFVPWIPNNMQLAVCDIPPKGLNLSGTFIGNSTSIMDLFQRVNSQFLSMFKRKAFLHLYTEEGMEESEFSEATADLIDLVNEYRQYDKASPEVDDEQPDQEGELLTEVHEDSLAHSPTNQV
B9: Pyruvate:ferredoxin oxidoreductase (protein, UniProt C4LTX6 1-1162)
chain: MQSVDGNQAAAYVSYALSDVSFIFPITPSSPMAENADVWSSQGRKNVFGQVVDVYEMESEAGASGAVHGGCAAGSLVSTYTCSQGLMLMIPNMIKIAGEHLPCVFHVTARALAGQALSIFGDHSDVMACRSTGFCLLSSHNVQQCHDLAIVAHLATLEASLPFMHFFDGFRTSHEIQKIHQLTYDQIKSLVDMKYVDRAHKRGLNPIHPSQRGTSQGPDVFFQAVEKSNADYLKVPEIVQKYMDKVGELTGRHYKIFEYYGAADAERVVVVMGAAVPVLEECVDYLMKSGEKVGVLSVHLYRPWSAKHFLEQLPKTVTKISVLDRTKEAGSFGEPLYLDVATTLLDAGKHIKCVGGRYGLGSKEFTPAMAKAVFDNLKNEEPKNHFTVGIEDDVTHMSLPIGENFNPIPEGTTQCMFWGLGSDGTVGANHDAIRIIGQNTDMYVQGYFSYDAHKSGGVTVSHLRFGQKPIKSQYLIQNADYTACHFPNYVKKYKLLDAAKPNSVFVLNCPWTGAELEAQLPGSLKRVIAEKQIKFYTIDAIKIGQEVKLGRRINMIMQTVFFKLANVIPFEKAIVLLKEAVQKTYGAKGPAIVKMNHDAIDKALDGLVEVKVPAEWANAPLETVTKIEAPEFVTDVLMPQLAMKGNELPVSKFAADGFMPMGTTKYEKRGIATKIPTWEASKCVQCNMCSLYCPHAAIRCFYLTPEESAKAPAEFVQIDGKAQQAGYKFRIQVSAMDCTGCEVCTTACPVKCLSMTPFEQVSEVESKNWEFAMTLSPKNSLSDRSNIKTTMIHQPYLEFSGACEGCNETALVKLITQLYGERTIIANATGCSSIWGATWGTNPYTVDGEGRGPAWGNSLFEDNAEYGFGMFKANEQRRLYLEQICKEAIAEGKLSNELKTLLEEWIAKKEDANESEKIYAAVKPLLAAEKDKSEVLGLIEQNSDMFVKISHWIVGGDGWAYDIGYNGVDHVLASGHNVNILVLDTEMYSNTGGQKSKATNLGAVVKFASSGCKRPKKDLGAIAMAYGDVYVASIALGANPAQAFKAFKEAESYNGVSLIIAYCPCKEQGVPLQKSIEEAKMAVNSGYWSLYRYDPRLVEQGKPGLQLDCSEVKGDLEAFLARENRFALLGRKDKETADKLHAQLKANIDKKLAHLKVVSKQA
B10: AAA domain-containing protein (protein, UniProt C4M3C0 1-422)
chain: MEGFTEEEMITLNEADVLSLSNEEIKQQIKQMERQEGVIRHEHERIRQELAVINKQNKESKEKIEMFAKLPFLISNVVEILDLPPEESDDGSGLDNKGNVGTKGVVINTSMRSNVFLPVSGLVNVKDLKPGDLVGVNKDTYLILEKLPQQYDGRVKSMEVIERPTETYNDVGGLDKEMKEMIEAIVLPMTQKEKFEKLGIQTPKGVLLYGPPGTGKTLMARACAAQTKSTFLKLAAPQLVSSSIGDGSRIIREMFELAKSKAPAIIFIDEIDAIGTKRTESEHSGDREIQRTMLELLNQLDGFSKTDDVRVIAATNRIDVLDPALLRSGRFDRKIEFPTPNEEARVHILQIHSKKLKCSDDINFEELARSTQDFNGAQLKAVCVEAGMIALRREAIEIRHEDFQQGILEVQSKKKKSLTYFA
B11: EF-hand calcium-binding domain containing protein (protein, UniProt C4MBE2 1-227)
chain: MQFGYPPMQPPVANFCLWNLQPIQGSWMGAACIYQMPPSVRNTWWFPLLNTIPLDQYTRIYQWFMGVDRDRSGTLEINELMMGQFPGGIRLSPQTALRMMRIFDTDFNGHISFYEFMAMYKFMELAYNLFVMNDRNRSGTLEPHEILPALQQLGFYINQRTSLLLHRLFARGMAFCDLNCWIAICAFAAQTRSAYQMIFMNPYYGPMKPFNPMEFGKFLDVVTSLLE
B12: Glutamine--tRNA ligase (protein, UniProt C4M1P6 1-753)
chain: MAGAAEQFELIGIAKQKAEETLKNAELTKTLLDIIKEAGCEKGCEKAIGQLLYQLATKLNKGKESIRPQVIAWIVSKKVTNINMDALMTYINKHQELDIPTIEKECGVGVVVTREQIIEGVKQLLSGKMEELKKNRYTMEGQLIREAKDSIKWADGKVLNEELMKQLKEILGEKTKDDIKKKAQKKSGEPNKKEEVKNLPKQKNVDSGVKLSNPADNIQKTPEILAEHLKRTGGIYVTRFPPEPNGYLHIGHAKSMYLNFGYAEKTGGKCYMRFDDTNPEKETHEFINTIEETVKWLGHTPCAVTYSSQYFDRIYDCAIELIKRGKAYVCHQTPDQIAASRENKQPSPWRDRSVEENLKHFKWMCQGRYGEGEATLRMKMDINSPNPCMWDLVAYRIKFFPHPVTGDRLCCYPSYDFVHCLVDSFEDITHSMCTLEFLPRRESYFWLLDALDMYKPVVWEFNRLNITYTVMSKRKLHALVDKGYVRGWDDPRMPTIMGFKRKGYSADAINNFCRTVGVTTNTTVYIDYEVLEQHCRDDMEVKCKRAMCVPDPVKVILTNVPDDYCIEVVRPNHPMNDKMGTNTVHLRKVLYIDRSDWRDEDKKGYWGLAPNKVVGLRYAGNIICHKFDKDAEGKITCLYCTFDADKKEKPKGHIQWVSSGVNGAEPAKAELRYYDTLFTDPKPESPDWEKLINPKSLTIVNGYVDETLEHVKPLDCFQFERVGFFCCDSDSKEGALVFNRTVGLKESKEKKQI
B13: Inositol-3-phosphate synthase (protein, UniProt C4M5S9 1-508)
chain: MSYQFHSTKSHQTESSIEADFHYETTHVEVSKEGVICTPIAKDYKFKVDKKIPKMGLMMIGWGGNNGTTVTAGILANKHHLCWTDRRGVHEPNYYGSYTQSATMRLGATSEGEEIYAPYKDILPFVCPDNIVVGGWDISKVNMADALKRAQVVDYDLQRQLYPYMKELVPLPSIYYKSYIAANQDDRADNVIPGTKQNHLDTVRQNIRDFKAQHGLDKIVVLWTATTERYVEIKEGLNDTAENLLKSIAAGEEEVSPSTIFATAAILEGCPFVNGSPQNTLVPGVIDLANKHGGAVMGDDFKTGQTKIKSVLADFLVSSGLKLQSIVSYNHLGNNDGKNLSSPSQFRSKEISKSNVVSDVVKSNNIMYKEGEHPDHVIVIKYVPYVGDSKRAMDEYTSEIFLGGHNTIALHNTCEDSLLAAPLMIDLAVLMEFMTRVTYSIDGKEFKNFNSVMSMISYLLKAPVVPKGSPVINALFKQRECLDNFFRALLGLPCDNHLLLEGKTEHFF

Biological target: EhVps23 (E. histolytica (endogenous in HM1:IMSS trophozoites))
Test: affinity purification with mass spectrometry; immunoprecipitation with α-EhVps23 antibody and protein G-agarose from trophozoite lysates (10 mM Tris-HCl, 50 mM NaCl, protease inhibitors, freeze-thawing; pre-cleared with Protein-G, 2 h at 4°C); precipitate separated by gel electrophoresis, LC-ESI-HDMSE

Row | Binder | binding
1 | B1 | binds
2 | B2 | binds
3 | B3 | binds
4 | B4 | binds
5 | B5 | binds
6 | B6 | binds
7 | B7 | binds
8 | B8 | binds
9 | B9 | binds
10 | B10 | binds
11 | B11 | binds
12 | B12 | binds
13 | B13 | binds
